Library screen at single concentrations

Amino acid sequences for entries named in this document (tags omitted). Residues count along the entry.
UniProt Q4DA54, 1-478: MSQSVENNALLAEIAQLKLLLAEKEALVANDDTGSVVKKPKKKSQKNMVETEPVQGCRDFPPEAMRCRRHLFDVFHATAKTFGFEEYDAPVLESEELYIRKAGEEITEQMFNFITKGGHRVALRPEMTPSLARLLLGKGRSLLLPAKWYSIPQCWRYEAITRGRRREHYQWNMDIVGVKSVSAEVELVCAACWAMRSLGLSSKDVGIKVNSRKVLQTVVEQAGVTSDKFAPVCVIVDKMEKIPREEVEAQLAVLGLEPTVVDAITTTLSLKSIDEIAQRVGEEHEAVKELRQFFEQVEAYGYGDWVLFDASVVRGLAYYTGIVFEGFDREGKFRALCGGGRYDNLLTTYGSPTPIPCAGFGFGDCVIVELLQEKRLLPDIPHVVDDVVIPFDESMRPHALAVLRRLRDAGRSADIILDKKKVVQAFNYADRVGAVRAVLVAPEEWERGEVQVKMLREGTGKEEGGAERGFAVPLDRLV
UniProt A4I591, 1-473: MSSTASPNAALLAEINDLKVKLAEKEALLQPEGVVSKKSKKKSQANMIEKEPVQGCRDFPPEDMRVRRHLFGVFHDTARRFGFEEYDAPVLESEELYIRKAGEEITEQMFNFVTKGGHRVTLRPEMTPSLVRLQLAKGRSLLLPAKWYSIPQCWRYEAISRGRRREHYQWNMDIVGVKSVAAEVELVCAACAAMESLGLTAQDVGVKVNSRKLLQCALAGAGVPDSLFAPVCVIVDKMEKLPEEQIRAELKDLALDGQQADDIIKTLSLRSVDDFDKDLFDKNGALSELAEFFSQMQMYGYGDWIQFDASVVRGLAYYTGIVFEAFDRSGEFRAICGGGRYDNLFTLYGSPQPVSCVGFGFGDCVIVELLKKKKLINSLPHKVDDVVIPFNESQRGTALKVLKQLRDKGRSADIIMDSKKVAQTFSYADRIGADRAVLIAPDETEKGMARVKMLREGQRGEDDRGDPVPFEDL
UniProt P9WPC5, whole entry: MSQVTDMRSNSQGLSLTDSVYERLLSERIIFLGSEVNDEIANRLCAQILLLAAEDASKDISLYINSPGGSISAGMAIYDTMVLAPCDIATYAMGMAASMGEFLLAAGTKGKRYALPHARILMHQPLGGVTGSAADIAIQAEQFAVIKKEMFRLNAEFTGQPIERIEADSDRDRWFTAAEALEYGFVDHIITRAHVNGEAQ
UniProt P9WPC3, whole entry partner: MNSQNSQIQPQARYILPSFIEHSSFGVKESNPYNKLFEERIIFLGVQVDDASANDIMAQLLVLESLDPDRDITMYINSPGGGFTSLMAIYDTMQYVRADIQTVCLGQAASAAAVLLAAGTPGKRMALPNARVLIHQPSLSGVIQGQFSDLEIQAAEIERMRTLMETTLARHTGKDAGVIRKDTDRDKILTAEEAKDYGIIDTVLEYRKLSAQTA

Source: ChEMBL document CHEMBL3988442, “University of Dundee, Small-Polar-MMV Screening Library” (2021).

Toxoplasma: 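Assay of Toxoplasma gondii numbers, read through their beta-galactosidase reporter with a colour substrate. Concentration: 10 µM. The record gives no direction; the compounds picked for IC50 retests had high values, so higher reads as fewer parasites. Size under these conditions: about 67,000 compounds, about 260 of them at 50% or above in at least one test.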
Leishmania in macrophages: 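Cell assay of Leishmania donovani living inside macrophages; the read-out is not stated. Compounds at 30 µM. The record gives no direction; compounds that gave an IC50 in retests scored well above the rest, so higher reads as stronger inhibition. About 69,000 compounds were tested under these conditions; 1.5% (about 1,000) showed 50% or more at least once.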
TcHisRS: 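Enzyme assay of histidyl-tRNA synthetase; the read-out is not stated. Target: Histidine-tRNA ligase, Trypanosoma cruzi CL Brener (UniProt Q4DA54). Tested at 30 µM. Direction is inferred from retests: higher values go with stronger inhibition. Of about 69,000 compounds tested this way, about 31 (0.045%) reached 50% or more in at least one test.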
LiHisRS: 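Enzyme assay of histidyl-tRNA synthetase; the read-out is not stated. Target: Histidine-tRNA ligase, Leishmania infantum (UniProt A4I591). Concentration: 30 µM. Direction is inferred from retests: higher values go with stronger inhibition. The assay is labelled LdHisRS but filed under L. infantum. Size under these conditions: about 69,000 compounds, about 410 of them at 50% or above in at least one test.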
ClpP1P2: 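ClpP1P2, Mycobacterium tuberculosis (UniProt P9WPC5 and UniProt P9WPC3). Protease assay of ClpP1P2, read by the AMC dye that it sets free. Concentration: 50 µM. Direction is inferred from only a few compounds that gave an IC50; most scored high, so higher reads as stronger inhibition. Most other retested compounds had strongly negative values. About 69,000 compounds were tested under these conditions; 0.015% (about 10) showed 50% or more at least once.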
T. brucei: 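Whole-parasite assay of Trypanosoma brucei over 72 hours; the read-out is not stated. Compounds at 30 µM. Higher reads as stronger inhibition (inferred: compounds with an IC50 in retests scored well above the rest). Values scatter widely below zero; nearly all retest evidence comes from the higher of the two concentrations used. Of about 64,000 compounds tested this way, about 940 (1.5%) reached 50% or more in at least one test.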

Results are given as percent effect.
How 0% and 100% were set is not recorded. Most values in the screen are low, and negative values occur.
The compounds are a random part of those screened.
Two or more numbers in one place are separate tests of the same structure; such repeats can differ widely.

{"compound": "Cc1ncc(CN(C)C2CCCN(Cc3noc(C4CC4)n3)C2)s1", "stereo": "stereo not shown", "Toxoplasma": -14.26, "Leishmania in macrophages": 32, "TcHisRS": -0.3802, "LiHisRS": -4, "ClpP1P2": 3.457, "T. brucei": -11.57}
{"compound": "CN(C)S(=O)(=O)N1CCC(c2c(C(N)=O)sc3ccccc23)C1", "stereo": "stereo not shown", "Toxoplasma": 8.203, "Leishmania in macrophages": 31.42, "TcHisRS": 5.747, "LiHisRS": -20, "ClpP1P2": -3.016, "T. brucei": -15.27}
{"compound": "CCn1cc(NC(=O)NCC(C)N(C)C)cn1", "stereo": "stereo not shown", "Toxoplasma": -1.78, "Leishmania in macrophages": -16.98, "TcHisRS": 4, "LiHisRS": 8.475, "ClpP1P2": -7.142}
{"compound": "COc1cccn(CC(=O)N(C)Cc2ccoc2)c1=O", "Toxoplasma": 4.564, "Leishmania in macrophages": 12.29, "TcHisRS": 0.8264, "LiHisRS": 47.62, "ClpP1P2": -2.468, "T. brucei": -12.18}
{"compound": "O=C(O)C(F)(F)F.[H][C@@]12CN(CC)C[C@]1([H])[C@@H](OC)CCN2S(=O)(=O)c1ccccc1F", "Toxoplasma": -0.8319, "Leishmania in macrophages": 19.01, "T. brucei": 30.94}
{"compound": "CCO[C@H]1CO[C@@]2(CCCN(Cc3nc(C)cs3)C2)C1.O=C(O)C(F)(F)F", "Toxoplasma": 20.07, "Leishmania in macrophages": 20.53, "T. brucei": 9.211}
{"compound": "Cl.Cn1cnc2c(-c3ccccc3)nc(C3CCNCC3)cc21", "Toxoplasma": -26.64, "Leishmania in macrophages": 15.13, "T. brucei": -64.11}
{"compound": "N#Cc1cccnc1N[C@@H]1c2ccccc2C[C@@H]1O", "Toxoplasma": 1.746, "Leishmania in macrophages": 13.59, "TcHisRS": 3.797, "LiHisRS": 14.58, "ClpP1P2": 2.967, "T. brucei": -2.126}
{"compound": "Cc1noc(CCCc2nc(C3CCOC3)no2)n1", "stereo": "stereo not shown", "Toxoplasma": -16.38, "Leishmania in macrophages": -32.46, "TcHisRS": 6.468, "LiHisRS": 8.434, "ClpP1P2": 0.8567, "T. brucei": -33.22}
{"compound": "O=C(O)C(F)(F)F.[H][C@]12CCC[C@@H](CN(C)CCOC)[C@@]1([H])CN(c1cc(OC)ncn1)C2", "Toxoplasma": -8.737, "Leishmania in macrophages": 20.56, "T. brucei": 9.121}
{"compound": "Cc1cc(C(=O)N2CCCC(c3cc(C(F)(F)F)[nH]n3)C2)on1", "stereo": "stereo not shown", "Toxoplasma": 1.883, "Leishmania in macrophages": 9.065, "TcHisRS": 0.5848, "LiHisRS": 0, "ClpP1P2": -19.09, "T. brucei": -0.559}
{"compound": "CCN(CCNC(=O)c1ccccc1Br)C1CC1", "Toxoplasma": -2.306, "Leishmania in macrophages": -3.009, "TcHisRS": 6.391, "LiHisRS": -27.03, "ClpP1P2": -6.224, "T. brucei": -8.146}
{"compound": "O=C(NCc1ccco1)c1cccc(CN2CCCC2CO)c1", "stereo": "stereo not shown", "Toxoplasma": 2.834, "Leishmania in macrophages": 2.347, "TcHisRS": 13.79, "LiHisRS": 14.91, "ClpP1P2": 9.769, "T. brucei": 0.1093}
{"compound": "Cn1ccnc1COc1ccc(CN2CCC(C(N)=O)CC2)cc1", "Toxoplasma": 16.92, "Leishmania in macrophages": 13.16, "TcHisRS": 2.874, "LiHisRS": 10.43, "ClpP1P2": -25.82, "T. brucei": -4.325}
{"compound": "O=C(O)c1c[nH]c2cc(NS(=O)(=O)c3ccc(Cl)cc3F)ccc12", "Toxoplasma": 8.831, "Leishmania in macrophages": 13.64, "TcHisRS": 3.429, "LiHisRS": 11.54, "ClpP1P2": -14.45}
{"compound": "Cc1noc(NCc2cn(C)nc2-c2ccncc2)n1", "Leishmania in macrophages": 11.3, "TcHisRS": 3.96, "LiHisRS": 15.22, "ClpP1P2": -5.898, "T. brucei": -13.42}
{"compound": "[H][C@]12CN(C(=O)c3csc(C)n3)C[C@@]1([H])OCCN(S(C)(=O)=O)C2", "Toxoplasma": 2.268, "Leishmania in macrophages": "-1.854 & 8.251", "T. brucei": -16.06}
{"compound": "COC(=O)c1cc2n(n1)CCN(C(=O)c1csc(CN(C)C)n1)C2", "Toxoplasma": 0.8489, "Leishmania in macrophages": 39.41, "TcHisRS": 11.06, "LiHisRS": 36.47, "ClpP1P2": 0.02165, "T. brucei": -10.02}
{"compound": "Cc1ncccc1CNC(CCO)C1CCCCC1", "stereo": "stereo not shown", "Toxoplasma": -23.17, "Leishmania in macrophages": 24.18, "TcHisRS": 4.242, "LiHisRS": 4.444, "ClpP1P2": -8.725, "T. brucei": -74.97}
{"compound": "Cn1cc(C(=O)N2CCO[C@@H]3CN(C4CCC4)C[C@@H]3C2)cn1", "TcHisRS": 7.778, "LiHisRS": 9.434, "ClpP1P2": -2.004}
{"compound": "O=C(O)c1cc(NS(=O)(=O)c2ccc(Cl)s2)ccc1N1CCOCC1", "TcHisRS": 12, "LiHisRS": 17.81, "ClpP1P2": -6.712}
{"compound": "Cn1cc(C[C@H]2[C@@H](OCC3CC3)CCN2C(=O)c2ccc[nH]2)cn1", "Toxoplasma": -6.982, "Leishmania in macrophages": 4.091, "TcHisRS": 4.082, "LiHisRS": 11, "ClpP1P2": 14.44, "T. brucei": -20.17}
{"compound": "CC(C)c1csc(C2CCCN(C(=O)c3ccc(=O)n(C)n3)C2)n1", "stereo": "stereo not shown", "Toxoplasma": 3.562, "Leishmania in macrophages": -1.359, "TcHisRS": 0.8475, "LiHisRS": 11.32, "ClpP1P2": 12.81, "T. brucei": -43.73}
{"compound": "Cc1ccccc1CS(=O)(=O)CC(=O)NCc1ccccc1F", "Toxoplasma": 0.8547, "Leishmania in macrophages": 25.36, "TcHisRS": 5.435, "LiHisRS": 20, "ClpP1P2": -9.174, "T. brucei": 22.73}